In the supplement of paper PMC6078165:
The reference is the same well before dosing, and untreated signal decays as well.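 Fibroblast labels denote human fibroblasts, mainly primary ones from uterus (C12385, HUF), lung (H6013), bone (Hs27A), adrenal (HADF) and skin (WS1), plus mammary HMF and breast cancer-associated Hs343T. Cancer cells are basal-like or mesenchymal-like triple-negative breast cancer lines. A hit is a response shift exceeding 3x replicate standard deviation. The tissue of the other fibroblasts is not given here.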

System: MDAMB231
Assay: relative JC-1 red fluorescence (viability) vs pre-drug, coculture with fibroblast (fraction); higher = more viable cancer cells
Procedure: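 JC-1 labelled TNBC cells cocultured 1:1 (1,500 cells each) with CellTrace Violet stained primary or stromal fibroblasts in 384-well plates in FluoroBrite medium, treated with one of 42 anticancer drugs at 0.1, 1, 10 or 100 uM. JC-1 red fluorescence (mitochondrial integrity in cancer cells only) was read by plate reader every 8 h for 72 h. Values are normalised to each well's pre-drug value. The stock of one drug was tenfold lower, so its dose labels may be too high.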

O=c1[nH]cc(F)c(=O)[nH]1 [Fluorouracil]
relative JC-1 red fluorescence
Conditions | 8 h | 16 h | 24 h | 32 h | 40 h | 48 h | 56 h | 64 h | 72 h
10 µM, coculture fibroblast: C12385 | 0.7843 | 0.756 | 0.694 | 0.652 | 0.602 | 0.585 | 0.551 | 0.55 | 0.541
10 µM, coculture fibroblast: H6013 | 0.9034 | 0.82478 | 0.7809 | 0.7628 | 0.716 | 0.698 | 0.677 | 0.661 | 0.637
10 µM, coculture fibroblast: H6019 | 0.764 | 0.679 | 0.652 | 0.624 | 0.591 | 0.567 | 0.516 | 0.509 | 0.481
10 µM, coculture fibroblast: H6076 | 0.902 | 0.794 | 0.727 | 0.699 | 0.662 | 0.617 | 0.595 | 0.581 | 0.564
10 µM, coculture fibroblast: H6231 | 0.915 | 0.805 | 0.715 | 0.66 | 0.5975 | 0.5599 | 0.52032 | 0.499 | 0.48
10 µM, coculture fibroblast: HADF | 0.8936 | 0.8466 | 0.797 | 0.758 | 0.717 | 0.665 | 0.636 | 0.624 | 0.576
10 µM, coculture fibroblast: HCFa | 0.902 | 0.834 | 0.782 | 0.734 | 0.683 | 0.636 | 0.615 | 0.588 | 0.552
10 µM, coculture fibroblast: HCPF | 0.92 | 0.831 | 0.762 | 0.737 | 0.691 | 0.658 | 0.615 | 0.587 | 0.57
10 µM, coculture fibroblast: HHSteC | 0.9134 | 0.833 | 0.793 | 0.753 | 0.704 | 0.68 | 0.643 | 0.615 | 0.577
10 µM, coculture fibroblast: HMF | 0.942 | 0.853 | 0.759 | 0.711 | 0.655 | 0.603 | 0.556 | 0.526 | 0.504
10 µM, coculture fibroblast: HPFa | 0.9489 | 0.894 | 0.837 | 0.778 | 0.749 | 0.7104 | 0.66845 | 0.6418 | 0.594
10 µM, coculture fibroblast: HUF | 0.8234 | 0.722 | 0.739 | 0.61 | 0.541 | 0.53 | 0.483 | 0.485 | 0.475
10 µM, coculture fibroblast: Hs5 | 0.883 | 0.799 | 0.752 | 0.726 | 0.697 | 0.65 | 0.625 | 0.616 | 0.609
10 µM, coculture fibroblast: Hs27A | 0.906 | 0.85 | 0.8079 | 0.777 | 0.732 | 0.688 | 0.68929 | 0.679 | 0.638
10 µM, coculture fibroblast: Hs343T | 0.949 | 0.868 | 0.76 | 0.705 | 0.6369 | 0.576 | 0.516 | 0.488 | 0.455
10 µM, coculture fibroblast: WS1 | 0.7659 | 0.694 | 0.646 | 0.576 | 0.524 | 0.497 | 0.452 | 0.447 | 0.427
100 µM, coculture fibroblast: C12385 | 0.742 | 0.709 | 0.688 | 0.644 | 0.571 | 0.56 | 0.527 | 0.532 | 0.515
100 µM, coculture fibroblast: H6013 | 0.901 | 0.848 | 0.812 | 0.779 | 0.737 | 0.7008 | 0.677 | 0.652 | 0.606
100 µM, coculture fibroblast: H6019 | 0.748 | 0.681 | 0.698 | 0.647 | 0.619 | 0.608 | 0.584 | 0.592 | 0.567
100 µM, coculture fibroblast: H6076 | 0.899 | 0.823 | 0.797 | 0.792 | 0.764 | 0.741 | 0.744 | 0.739 | 0.725
100 µM, coculture fibroblast: H6231 | 0.917 | 0.793 | 0.7138 | 0.6709 | 0.6141 | 0.5857 | 0.5453 | 0.5275 | 0.4992
100 µM, coculture fibroblast: HADF | 0.875 | 0.839 | 0.8062 | 0.76769 | 0.732 | 0.702 | 0.688 | 0.6752 | 0.631
100 µM, coculture fibroblast: HCFa | 0.89597 | 0.84 | 0.8 | 0.773 | 0.735 | 0.685 | 0.659 | 0.641 | 0.607
100 µM, coculture fibroblast: HCPF | 0.9 | 0.778 | 0.73 | 0.7013 | 0.648 | 0.608 | 0.575 | 0.551 | 0.538
100 µM, coculture fibroblast: HHSteC | 0.902 | 0.851 | 0.801 | 0.761 | 0.718 | 0.69 | 0.66 | 0.639 | 0.598
100 µM, coculture fibroblast: HMF | 0.9283 | 0.8002 | 0.736 | 0.707 | 0.665 | 0.642 | 0.615 | 0.608 | 0.597
100 µM, coculture fibroblast: HPFa | 0.9382 | 0.87 | 0.812 | 0.7729 | 0.743 | 0.706 | 0.656 | 0.629 | 0.592
100 µM, coculture fibroblast: HUF | 0.834 | 0.7218 | 0.7836 | 0.6524 | 0.6016 | 0.609 | 0.5636 | 0.563 | 0.55475
100 µM, coculture fibroblast: Hs5 | 0.873 | 0.7868 | 0.7437 | 0.693 | 0.658 | 0.609 | 0.5933 | 0.576 | 0.5604
100 µM, coculture fibroblast: Hs27A | 0.89299 | 0.831 | 0.812 | 0.787 | 0.745 | 0.687 | 0.701 | 0.691 | 0.656
100 µM, coculture fibroblast: Hs343T | 0.902 | 0.817 | 0.761 | 0.728 | 0.684 | 0.646 | 0.59565 | 0.5774 | 0.5584
100 µM, coculture fibroblast: WS1 | 0.696 | 0.653 | 0.615 | 0.55 | 0.511 | 0.483 | 0.442 | 0.441 | 0.427
